Where a name gives a salt, the structure may show the parent alone. At least one compound was matched to its structure with a doubt left.
Test system: dopamine receptors
Experiment: Antagonism of apomorphine-induced rearing in mice (dopamine receptor blockade in vivo)
Settings: inferred from antagonism of rearing and sniffing, i.p.
Method: The capacity to bring about a blockade of the dopamine receptors in vivo was evaluated for some of the compounds according to the invention. The tests used were the antagonism of stereotyped sniffing and rearing induced by apomorphine in mice. These tests have been described by Protais et al. (Psychopharmacology, 1976, 50:1-6) and by Vasse et al. (Naunyn Schmiedeberg's Arch. Pharmacol., 1985, 329:108-116).

SMILES: CCN1CCCC1CNC(=O)c1cc(Cl)c2ccccc2c1OC (stereo not shown) [Example 8, 4-Chloro-N-[(N-ethyl-2-pyrrolidinyl)methyl]-1-methoxy-2-naphthamide hydrochloride]
- blockade of the dopamine receptors in vivo: effective blockade of the dopamine receptors

Source: patent US5498628A, “Naphthamide derivatives” (Institut National de la Sante et de la Recherche Medicale, priority 1991, dated 1996)
